In paper PMC10601815, “αβ,α′β′-Diepoxyketones are mechanism-based inhibitors of nucleophilic cysteine enzymes” (Chemical Communications (Cambridge, England), 2023):

Assay: Reactivity with serine, lysine, tyrosine, threonine, arginine, histidine (1H-NMR, LCMS)
Settings: 250 µM each, 50 mM tris-d11, pH 7.5; up to 12 h

Which “reaction with serine, lysine, threonine, tyrosine, arginine, or histidine” value does the source give for O=C([C@H]1O[C@@H]1c1ccccc1)[C@@H]1O[C@H]1c1ccccc1 [DEK 1] here?
Its value is “No evidence for reaction; also recorded: apparently did not react”.

Entries after “also recorded” stand apart in the source; their conditions may differ.
